Measurements reported in PMC7864943.
No constants are given. Whether binding was seen depends on the method and setting. Binding calls can cover weak binding; strength is not graded here.

Assays:
[1] = target: T1, yeast p23 (Sba1) wild type (yeast) (UniProt P28707); assay: NMR titration; 1H-15N HSQC of 15N-labeled p23 with unlabeled full-length Hsp90/AMP-PNP or GR-LBDm alone; peak intensity ratios; 25 mM Tris, 200 mM NaCl, 5 mM DTT, 0.5 mM dexamethasone, pH 7; 30 °C; both purified
T1 sequence: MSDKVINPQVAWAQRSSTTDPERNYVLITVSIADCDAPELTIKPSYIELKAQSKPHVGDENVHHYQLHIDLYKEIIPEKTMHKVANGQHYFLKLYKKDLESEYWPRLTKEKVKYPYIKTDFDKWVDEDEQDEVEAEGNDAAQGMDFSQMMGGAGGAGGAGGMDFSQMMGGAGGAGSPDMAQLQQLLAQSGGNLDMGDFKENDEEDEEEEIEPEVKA

[2] = target: T2, human p23 (human) (UniProt Q15185); assay: as above
T2 sequence: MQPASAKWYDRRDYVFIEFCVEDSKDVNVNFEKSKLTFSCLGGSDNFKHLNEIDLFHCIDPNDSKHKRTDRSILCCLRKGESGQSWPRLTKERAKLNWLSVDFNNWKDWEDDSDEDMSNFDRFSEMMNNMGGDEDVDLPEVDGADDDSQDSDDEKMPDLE

[3] = target: T1, yeast p23 (Sba1) wild type (yeast); assay: NMR titration; 1H-15N HSQC of 15N-labeled p23 with full-length Hsp90/AMP-PNP and GR-LBDm together (ternary complex); peak intensity ratios; both purified
[4] = target: T2, human p23 (human); assay: as above

Measured: binding

glucocorticoid receptor ligand binding domain (GR-LBDm) (domain or fragment)
binds: all assays above
